In the supplement of paper PMC10626197:
Where a name gives a salt, the structure may show the parent alone. Some well-known active drugs show little effect in this data set, so a weak value is uncertain.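 Drug pairs were tested on MCF7 breast cancer cells in a dose grid. On every plate, solvent-only DMSO wells served as the untreated reference, and a doxorubicin series served as the total-kill control. No hit threshold applies to the viability readings.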

System: MCF7
Assay: cell viability relative to DMSO control (raw); higher = more viable cells
Details: exposure time 72 h
Description: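 MCF7 cells, 1000 cells/well in 384-well plates, treated with 6x6 dose matrices of drug pairs (1:3 serial dilutions, DMSO as lowest dose) for 72 h at 37 °C. Viability read by CellTiter-Glo luminescence, 3 biological replicates. Normalised viability sets 0% at the highest doxorubicin dose and 100% at the 0,0 µM control per combination.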

CO[C@H]1C(=O)[C@]2(C)[C@@H](OC)C[C@H]3OC[C@@]3(OC(C)=O)[C@H]2[C@H](OC(=O)c2ccccc2)[C@]2(O)C[C@H](OC(=O)[C@H](O)[C@@H](NC(=O)OC(C)(C)C)c3ccccc3)C(C)=C1C2(C)C [Cabazitaxel] + COc1cc2nc(N3CCN(C(=O)C4CCCO4)CC3)nc(N)c2cc1OC [Terazosin (hydrochloride dihydrate)]
cell viability [%]
Details	drug 2 concentration 0 µM	drug 2 concentration 0.0308642 µM	drug 2 concentration 0.0925926 µM	drug 2 concentration 0.277778 µM	drug 2 concentration 0.833333 µM	drug 2 concentration 2.5 µM
drug 1 concentration 0.0184691 µM	91.8	96.5	90.4	93.1	93.2	97.2
drug 1 concentration 0.0554074 µM	89.6	101	94.4	99.4	101	97.3
drug 1 concentration 0.166222 µM	90.3	86.1	87.8	94	91.6	88.8
drug 1 concentration 0.498667 µM	87.8	87.7	91.5	92.3	89.9	90.2
drug 1 concentration 1.496 µM	90.6	94.2	94	93.3	93.4	86.2

CC[C@]1(O)C[C@@H]2CN(CCc3c([nH]c4ccccc34)[C@@](C(=O)OC)(c3cc4c(cc3OC)N(C)[C@H]3[C@@](O)(C(=O)OC)[C@H](OC(C)=O)[C@]5(CC)C=CCN6CC[C@]43[C@@H]65)C2)C1 [Vinblastine] + Cc1ncc(NC(=O)c2ccc(CN3CCN(C)CC3)c(C(F)(F)F)c2)cc1Nc1nccc(-c2cccnc2)n1 [Flumatinib (mesylate)]
cell viability [%]
Details	drug 2 concentration 0 µM	drug 2 concentration 0.617284 µM	drug 2 concentration 1.85185 µM	drug 2 concentration 5.55556 µM	drug 2 concentration 16.6667 µM	drug 2 concentration 50 µM
drug 1 concentration 0.00246914 µM	72.4	71.83	68.9	73.7	1.3	0.2
drug 1 concentration 0.00740741 µM	76.8	78.7	77.2	82.1	2.27	0.161
drug 1 concentration 0.0222222 µM	79.7	81.2	85.3	86.9	1.01	0.282
drug 1 concentration 0.0666667 µM	75.3	79.2	78.55	66.5	1.24	0.149
drug 1 concentration 0.2 µM	73.9	79	73.7	64.6	50.5	0.415

C/C(=C\c1csc(C)n1)[C@@H]1C[C@@H]2O[C@]2(C)CCC[C@H](C)[C@H](O)[C@@H](C)C(=O)C(C)(C)[C@@H](O)CC(=O)N1 [ixabepilone] + COc1cc2nc(N3CCN(C(=O)C4CCCO4)CC3)nc(N)c2cc1OC [Terazosin (hydrochloride dihydrate)]
cell viability [%]
Details	drug 2 concentration 0 µM	drug 2 concentration 0.0308642 µM	drug 2 concentration 0.0925926 µM	drug 2 concentration 0.277778 µM	drug 2 concentration 0.833333 µM	drug 2 concentration 2.5 µM
drug 1 concentration 0.00185185 µM	92.3	100	99.7	103	90.9	88.5
drug 1 concentration 0.00555556 µM	100	105	97	98.6	95.7	93
drug 1 concentration 0.0166667 µM	77.7	82.7	91	88.7	78.1	71
drug 1 concentration 0.05 µM	92.9	101	98.7	97.1	94.1	86.6
drug 1 concentration 0.15 µM	97.9	102	103	102	86.5	77.5

CN(Cc1cnc2nc(N)nc(N)c2n1)c1ccc(C(=O)N[C@@H](CCC(=O)O)C(=O)O)cc1 [Methotrexate] + Nc1ncn([C@@H]2O[C@H](CO)[C@@H](O)[C@H]2O)c(=O)n1 [5-Azacytidine]
cell viability [%]
Details	drug 2 concentration 0 µM	drug 2 concentration 0.123457 µM	drug 2 concentration 0.37037 µM	drug 2 concentration 1.11111 µM	drug 2 concentration 3.33333 µM	drug 2 concentration 10 µM
drug 1 concentration 0.00617284 µM	105	99.5	105	99.9	99.3	79.3
drug 1 concentration 0.0185185 µM	97	94.8	108	94.9	97.7	66.1
drug 1 concentration 0.0555556 µM	92.8	89.7	89.4	82.4	85.1	75.8
drug 1 concentration 0.166667 µM	81.8	86.1	88.7	91.8	84.6	62.6
drug 1 concentration 0.5 µM	112	118	118	126	99.6	72.5

CC[C@]1(O)C[C@H]2CN(CCc3c([nH]c4ccccc34)[C@@](C(=O)OC)(c3cc4c(cc3OC)N(C=O)[C@H]3[C@@](O)(C(=O)OC)[C@H](OC(C)=O)[C@]5(CC)C=CCN6CC[C@]43[C@@H]65)C2)C1 [Vincristine] + CN(C)CCOc1ccc(/C(=C(/CCCl)c2ccccc2)c2ccccc2)cc1 [Toremifene (citrate)]
cell viability [%]
Details	drug 2 concentration 0 µM	drug 2 concentration 0.432099 µM	drug 2 concentration 1.2963 µM	drug 2 concentration 3.88889 µM	drug 2 concentration 11.6667 µM	drug 2 concentration 35 µM
drug 1 concentration 0.0037037 µM	96.2	93.6	88.5	85.6	41.9	0.662
drug 1 concentration 0.0111111 µM	97.9	101	92.4	85.8	33.4	0.919
drug 1 concentration 0.0333333 µM	105	107	99.9	71	37.8	0.978
drug 1 concentration 0.1 µM	88.1	88.6	83.6	73.7	3.02	0.552
drug 1 concentration 0.3 µM	96	90.3	87.1	74	31.6	0.81

CC[C@]1(O)C[C@@H]2CN(CCc3c([nH]c4ccccc34)[C@@](C(=O)OC)(c3cc4c(cc3OC)N(C)[C@H]3[C@@](O)(C(=O)OC)[C@H](OC(C)=O)[C@]5(CC)C=CCN6CC[C@]43[C@@H]65)C2)C1 [Vinblastine] + CN1CCN(C2=Nc3cc(Cl)ccc3Nc3ccccc32)CC1 [Clozapine]
cell viability [%]
Details	drug 2 concentration 0 µM	drug 2 concentration 0.123457 µM	drug 2 concentration 0.37037 µM	drug 2 concentration 1.11111 µM	drug 2 concentration 3.33333 µM	drug 2 concentration 10 µM
drug 1 concentration 0.00246914 µM	93.2	90.8	87.2	89.7	88.1	84.8
drug 1 concentration 0.00740741 µM	94	96.4	96.7	102	100	95.2
drug 1 concentration 0.0222222 µM	97.9	93.8	97.6	97.5	88.5	80.9
drug 1 concentration 0.0666667 µM	94.7	95.4	97.1	99.8	90.1	78.6
drug 1 concentration 0.2 µM	95.2	90.7	90.2	91.4	85	73.5

O=C1c2c(O)ccc(O)c2C(=O)c2c(NCCNCCO)ccc(NCCNCCO)c21 [Mitoxantrone] + C[C@]12C=CC(=O)N[C@@H]1CC[C@@H]1[C@@H]2CC[C@]2(C)[C@@H](C(=O)Nc3cc(C(F)(F)F)ccc3C(F)(F)F)CC[C@@H]12 [Dutasteride]
cell viability [%]
Details	drug 2 concentration 0 µM	drug 2 concentration 0.617284 µM	drug 2 concentration 1.85185 µM	drug 2 concentration 5.55556 µM	drug 2 concentration 16.6667 µM	drug 2 concentration 50 µM
drug 1 concentration 0.0123457 µM	95.5	95.9	101	90.8	70.7	43.6
drug 1 concentration 0.037037 µM	89.6	95.5	95.4	94.3	80	45
drug 1 concentration 0.111111 µM	90.4	88.4	95.5	77.7	61.9	38.7
drug 1 concentration 0.333333 µM	79.6	83.1	79	68.5	55.2	24.4
drug 1 concentration 1 µM	65.9	65.4	63	57.9	44	23.1

Cc1ccc(Nc2nccc(N(C)c3ccc4c(C)n(C)nc4c3)n2)cc1S(N)(=O)=O [Pazopanib] + Cc1ncc(NC(=O)c2ccc(CN3CCN(C)CC3)c(C(F)(F)F)c2)cc1Nc1nccc(-c2cccnc2)n1 [Flumatinib (mesylate)]
cell viability [%]
Details	drug 2 concentration 0 µM	drug 2 concentration 0.617284 µM	drug 2 concentration 1.85185 µM	drug 2 concentration 5.55556 µM	drug 2 concentration 16.6667 µM	drug 2 concentration 50 µM
drug 1 concentration 0.617284 µM	83.1	87.3	90.9	89.9	88.9	0.647
drug 1 concentration 1.85185 µM	88.3	89.1	93.1	93.4	94.9	0.302
drug 1 concentration 5.55556 µM	77.2	79.2	83	83.2	42.1	0.366
drug 1 concentration 16.6667 µM	56.6	52.2	46.6	48.4	0.556	0.119
drug 1 concentration 50 µM	69.9	69.8	59.8	29	0.529	0.318

Nc1cccc2c1CN(C1CCC(=O)NC1=O)C2=O (stereo not given) [Lenalidomide] + N#CCC1(n2cc(-c3ncnc4[nH]ccc34)cn2)CN(C2CCN(C(=O)c3ccnc(C(F)(F)F)c3F)CC2)C1 [Itacitinib]
cell viability [%]
Details	drug 2 concentration 0 µM	drug 2 concentration 0.185185 µM	drug 2 concentration 0.555556 µM	drug 2 concentration 1.66667 µM	drug 2 concentration 5 µM	drug 2 concentration 15 µM
drug 1 concentration 0.493827 µM	113	113	112	108	110	103
drug 1 concentration 1.48148 µM	116	112	115.3	110	111	111
drug 1 concentration 4.44444 µM	108	104	111	107	107	103
drug 1 concentration 13.3333 µM	110	115	117	113	104	110
drug 1 concentration 40 µM	117	116	116	116	122	119

CNC(=O)c1cc(Oc2ccc(NC(=O)Nc3ccc(Cl)c(C(F)(F)F)c3)cc2)ccn1 [Sorafenib] + CNS(=O)(=O)Cc1ccc2[nH]cc(CCN(C)C)c2c1 [Sumatriptan (succinate)]
cell viability [%]
Details	drug 2 concentration 0 µM	drug 2 concentration 0.0740741 µM	drug 2 concentration 0.222222 µM	drug 2 concentration 0.666667 µM	drug 2 concentration 2 µM	drug 2 concentration 6 µM
drug 1 concentration 0.493827 µM	88.1	94.4	98.8	92.1	94	93.1
drug 1 concentration 1.48148 µM	89.9	86.8	92.1	90.5	90.6	87.2
drug 1 concentration 4.44444 µM	57.5	58.9	56.5	57.6	61.1	58.1
drug 1 concentration 13.3333 µM	19.8	26.2	23.7	25.6	26.5	25
drug 1 concentration 40 µM	2.63	1.71	3.05	2.62	4.22	4.07

O=C1c2c(O)ccc(O)c2C(=O)c2c(NCCNCCO)ccc(NCCNCCO)c21 [Mitoxantrone] + Clc1cccc(Cl)c1NC1=NCCN1 [Clonidine]
cell viability [%]
Details	drug 2 concentration 0 µM	drug 2 concentration 0.0123457 µM	drug 2 concentration 0.037037 µM	drug 2 concentration 0.111111 µM	drug 2 concentration 0.333333 µM	drug 2 concentration 1 µM
drug 1 concentration 0.0123457 µM	95.9	101	103	103	102	98.3
drug 1 concentration 0.037037 µM	93.7	91.2	95.6	95.6	100	94.7
drug 1 concentration 0.111111 µM	84.9	90.4	90.6	92	96.4	97.7
drug 1 concentration 0.333333 µM	78	77.5	77.3	82.4	74.2	72.7
drug 1 concentration 1 µM	72	70.5	69	70.47	70.2	74.3
